Results on 3 molecules are retold here after the supplement of paper PMC4604168 (melanoma cell lines).

Some of the results follow. Repeats are few or missing, and single values can be far off.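 Cells were imaged in 1,536-well plates, and nuclei stained with an antibody against cleaved PARP were counted against all DNA-stained nuclei to give the apoptosis fraction. Screening doses were chosen to leave most cells alive, and resting and induced cleaved-PARP levels differ strongly between cell lines.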

Common to all, as to assay: cleaved PARP positive nuclei fraction relative to DMSO control; melanoma cells; higher = more apoptosis
What all share (settings): library dose: low library concentration; 72 h

In test [1] the test system is 501Mel.
Test [2] has as its system A101D.
The test system of test [3] is A2058.
In test [4] the test system is C32.
Test [5] concerns CBRC008 (line from a melanoma biopsy).
Test [6] relates to CBRC014 (line from a melanoma biopsy).
Test [7] concerns CBRC016 (line from a melanoma biopsy).
In test [8] the test system is CBRC017 (line from a melanoma biopsy).
In test [9] the test system is COLO792.
The test system of test [10] is COLO800.
For test [11], the system named is COLO829.
The subject of test [12] is G361.
Test [13] concerns IPC-298.
Test [14] has as its system IST-MEL1.
Test [15] has as its system LB2518-MEL.
Test [16] has as its system LOXIMVI.

For `C=C(c1ccc(C(=O)O)cc1)c1cc2c(cc1C)C(C)(C)CCC2(C)C` [Bexarotene] + Oc1nc(-c2ccc(C(F)(F)F)cc2)nc2c1CSCC2 [XAV939] (first compound 2 µM, partner dose 2 µM), the “cleaved PARP positive nuclei fraction” value in test [1] was found to be 66.3%; in test [2], 1190%; in test [3], 89.2%; in test [4] it was 137%; in [5], 52.6%; in [6] it was 93.4%. Further, the “cleaved PARP positive nuclei fraction” value in test [7] is 67.3%; in test [8], 120%; in test [9], 93.2%; in test [10], 122%; in test [11], 117%; in test [12], 51.2%. For the same molecule, the “cleaved PARP positive nuclei fraction” value in [13] came to 49%; in test [14] it was 69.7%; in [15], 123%; in test [16] it was 50.6%.

Regarding `O=C(O)[C@@H]1[O][Sb](=[O])([O][Sb]2(=[O])[O][C@H]([C@H](O)CO)[C@H](O)[C@H](C(=O)O)[O]2)[O][C@H]([C@H](O)CO)[C@@H]1O` (stereo partly drawn) [stibogluconate] + O=C(O)C(=O)Nc1sc2c(c1C(=O)O)CCNC2 [TCS401] (first compound 2 µM, partner dose 1.66667 µM), the “cleaved PARP positive nuclei fraction” value was 57.7% in [1]; 27% in test [2]; 33.9% in [3]; 73.6% in [4]; 45% in [5]; 68.2% in [6]. For the same molecule, the “cleaved PARP positive nuclei fraction” value in test [7] is 29.9%; in test [8] it was 175%; in test [9], 26.3%; in test [10], 104%; in test [11] it was 206%; in test [12] it was 44.9%. The “cleaved PARP positive nuclei fraction” value in [13] stood at 143%; in test [14], 82.2%; in [15], 63.8%; in test [16], 75.9%.

As for `CNC(=O)c1cc(Oc2ccc(NC(=O)Nc3ccc(Cl)c(C(F)(F)F)c3)cc2)ccn1` [sorafenib] + COc1ccc(-c2ccc3c(N4CCOCC4)nc(N4C[C@@H](C)O[C@@H](C)C4)nc3n2)cc1CO [KU0063794] (first compound 0.4 µM, partner dose 0.02 µM), the “cleaved PARP positive nuclei fraction” value in test [1] came to 87.3%; in test [2] it was 8.51%; in test [3], 183%; in test [4] it was 93.4%; in test [5] it was 60%; in test [6] it was 88.5%. The “cleaved PARP positive nuclei fraction” value in test [7] was 44.5%; in [8] it was 84.8%; in test [9] it was 53.9%; in [10], 54.5%; in test [11] it was 82.3%; in test [12], 34.5%. In addition, the “cleaved PARP positive nuclei fraction” value is 34.4% in test [13], 143% in test [14], 65% in test [15] and 81.8% in [16].
